Results deposited as PubChem BioAssay AID1259425 (University of Nebraska Medical Center, 2018).
Aim: 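Find knockdowns that reproduce the gene expression pattern seen when KSR1 is lost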 (primary screen). Cells: HCT116 human colon cancer cells. Reagents: siRNA pool against human genes, 50 nM siRNA. Detection: 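mRNA of six signature genes measured together by branched-DNA assay after 50 nM siRNA pool, blank removed, divided by geometric mean of two housekeeping genes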. Direction: BNIP3L mRNA: higher = more BNIP3L transcript after knockdown.
Here is a random part of about 14,000 deposited reagents. Further read-outs or replicates are left out here. Not stated in the record: the time to read-out.

BNIP3L mRNA, set 1 | Target gene
0.146 | DNAJC27 (DnaJ heat shock protein family (Hsp40) member C27)
0.083 | KLK2 (kallikrein related peptidase 2)
0.118 | ACYP2 (acylphosphatase 2)
0.0708 | PCDHGB6 (protocadherin gamma subfamily B, 6)
0.0466 | PPP2R5B (protein phosphatase 2 regulatory subunit B'beta)
0.11 | ACE2 (angiotensin converting enzyme 2)
0.229 | CYP51A1 (cytochrome P450 family 51 subfamily A member 1)
0.0891 | EIF4A2 (eukaryotic translation initiation factor 4A2)
0.0755 | KRABD4 (KRAB domain containing 4)
0.0789 | NDUFAF1 (NADH:ubiquinone oxidoreductase complex assembly factor 1)
0.132 | MAFF (MAF bZIP transcription factor F)
0.0748 | ANKRD16 (ankyrin repeat domain 16)
0.117 | MEF2C (myocyte enhancer factor 2C)
0.0703 | ARFIP1 (ARF interacting protein 1)
0.114 | SUCNR1 (succinate receptor 1)
0.101 | PDP1 (pyruvate dehydrogenase phosphatase catalytic subunit 1)
0.124 | TAF1C
0.291 | AP1B1 (adaptor related protein complex 1 subunit beta 1)
0.0301 | RAB9BP1 (RAB9B, member RAS oncogene family pseudogene 1)
0.138 | MAML3 (mastermind like transcriptional coactivator 3)
0.0866 | GSAP (gamma-secretase activating protein)
0.113 | ZNF197 (zinc finger protein 197)
0.0753 | RRAS (RAS related)
0.079 | TM2D3 (TM2 domain containing 3)
0.232 | OR7E91P (olfactory receptor family 7 subfamily E member 91 pseudogene)
0.103 | ALX4 (ALX homeobox 4)
0.167 | POLI (DNA polymerase iota)
0.0799 | SLC3A1
0.0625 | ARHGAP6 (Rho GTPase activating protein 6)
0.234 | TRAF7 (TNF receptor associated factor 7)
0.089 | TMEFF2
0.0432 | MRPS26 (mitochondrial ribosomal protein S26)
0.189 | HNRNPF (heterogeneous nuclear ribonucleoprotein F)
0.118 | THAP10 (THAP domain containing 10)

Targets listed so far whose target name begins with R or r:
BNIP3L mRNA, set 1 | Target gene
0.0301 | RAB9BP1 (RAB9B, member RAS oncogene family pseudogene 1)
0.0753 | RRAS (RAS related)
